Results are given in words; binding and its absence hold for the method and conditions named. In cells and extracts the contact can be indirect. Some results given as binding are weak or reduced against the parent protein; the word gives no strength.
T1: Origin Recognition Complex subunit 2 (ORC2) (human (endogenous in U2OS)) (UniProt Q13416)
T1 sequence: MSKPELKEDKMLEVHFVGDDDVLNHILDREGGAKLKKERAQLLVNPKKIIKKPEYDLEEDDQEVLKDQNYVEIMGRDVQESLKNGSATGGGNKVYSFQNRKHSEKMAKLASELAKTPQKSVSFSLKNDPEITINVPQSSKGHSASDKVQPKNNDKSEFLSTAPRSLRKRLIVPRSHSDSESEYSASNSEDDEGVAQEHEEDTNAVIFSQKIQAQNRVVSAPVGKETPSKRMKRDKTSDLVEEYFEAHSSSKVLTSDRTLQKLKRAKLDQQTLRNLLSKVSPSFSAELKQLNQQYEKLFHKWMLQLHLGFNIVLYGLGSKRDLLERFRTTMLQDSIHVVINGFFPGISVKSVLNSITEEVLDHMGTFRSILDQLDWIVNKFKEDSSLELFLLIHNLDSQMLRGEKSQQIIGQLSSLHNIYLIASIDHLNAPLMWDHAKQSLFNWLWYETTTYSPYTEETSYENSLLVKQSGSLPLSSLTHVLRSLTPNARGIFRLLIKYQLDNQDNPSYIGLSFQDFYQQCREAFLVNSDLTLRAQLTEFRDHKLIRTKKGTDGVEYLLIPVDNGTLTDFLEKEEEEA


Tests used:
[1] = molecular target: T1, Origin Recognition Complex subunit 2 (ORC2) (human (endogenous in U2OS)); experiment: co-IP; U2OS cells treated with nocodazole for 24 hours; immunoprecipitation with ORC2 antibody, blotted with ORC2 or PIAS4 antibody
[2] = molecular target: T1, Origin Recognition Complex subunit 2 (ORC2) (human (endogenous in U2OS)); experiment: condition: only after release from nocodazole arrest into fresh medium; co-IP; U2OS cells treated with nocodazole for 24 hours, then released into fresh medium for indicated times; immunoprecipitation with ORC2 antibody, blotted with ORC2, PIAS4 or SENP2 antibody
[3] = molecular target: T1, Origin Recognition Complex subunit 2 (ORC2) (human (endogenous in U2OS)); experiment: co-IP; U2OS cells treated with nocodazole for 24 hours, then released into fresh medium for indicated times; immunoprecipitation with ORC2 antibody, blotted with ORC2, PIAS4 or SENP2 antibody

| binding [1] | binding [2] | binding [3] | Binder |
| --- | --- | --- | --- |
| binds | no binding |  | SUMO E3 ligase PIAS4 (enzyme, UniProt Q8N2W9 1-510) MAAELVEAKNMVMSFRVSDLQMLLGFVGRSKSGLKHELVTRALQLVQFDCSPELFKKIKELYETRYAKKNSEPAPQPHRPLDPLTMHSTYDRAGAVPRTPLAGPNIDYPVLYGKYLNGLGRLPAKTLKPEVRLVKLPFFNMLDELLKPTELVPQNNEKLQESPCIFALTPRQVELIRNSRELQPGVKAVQVVLRICYSDTSCPQEDQYPPNIAVKVNHSYCSVPGYYPSNKPGVEPKRPCRPINLTHLMYLSSATNRITVTWGNYGKSYSVALYLVRQLTSSELLQRLKTIGVKHPELCKALVKEKLRLDPDSEIATTGVRVSLICPLVKMRLSVPCRAETCAHLQCFDAVFYLQMNEKKPTWMCPVCDKPAPYDQLIIDGLLSKILSECEDADEIEYLVDGSWCPIRAEKERSCSPQGAILVLGPSDANGLLPAPSVNGSGALGSTGGGGPVGSMENGKPGADVVDLTLDSSSSSEDEEEEEEEEEDEDEEGPRPKRRCPFQKGLVPAC |
|  |  | binds | De-SUMOylase SENP2 (enzyme, UniProt Q9HC62 1-589) MYRWLVRILGTIFRFCDRSVPPARALLKRRRSDSTLFSTVDTDEIPAKRPRLDCFIHQVKNSLYNAASLFGFPFQLTTKPMVTSACNGTRNVAPSGEVFSNSSSCELTGSGSWNNMLKLGNKSPNGISDYPKIRVTVTRDQPRRVLPSFGFTLNSEGCNRRPGGRRHSKGNPESSLMWKPQEQAVTEMISEESGKGLRRPHCTVEEGVQKEEREKYRKLLERLKESGHGNSVCPVTSNYHSSQRSQMDTLKTKGWGEEQNHGVKTTQFVPKQYRLVETRGPLCSLRSEKRCSKGKITDTETMVGIRFENESRRGYQLEPDLSEEVSARLRLGSGSNGLLRRKVSIIETKEKNCSGKERDRRTDDLLELTEDMEKEISNALGHGPQDEILSSAFKLRITRGDIQTLKNYHWLNDEVINFYMNLLVERNKKQGYPALHVFSTFFYPKLKSGGYQAVKRWTKGVNLFEQEIILVPIHRKVHWSLVVIDLRKKCLKYLDSMGQKGHRICEILLQYLQDESKTKRNSDLNLLEWTHHSMKPHEIPQQLNGSDCGMFTCKYADYISRDKPITFTQHQMPLFRKKMVWEILHQQLL |

Source: PMC5642542
